Data as given in PubChem BioAssay AID652272 (Drosophila RNAi Screening Center, 2013)
Aim: 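Genome-wide knock-down search for components of Hedgehog signalling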 (primary screen). System: Drosophila clone 8 (Cl8) cells. Reagent: long dsRNA against Drosophila genes. Read-out: 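Plate reader light from a firefly reporter under a ptc promoter fragment that responds to Hedgehog, with Renilla light as transfection reference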. Scale: firefly Hh reporter signal: higher = more ptc reporter light; Renilla reference signal: higher = more Renilla control light. Hit rule: 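Hit when the z-score averaged over two replicates is under -2 or over +3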. Meaning of the calls: active = hit: reporter lowered or raised; inactive = not a hit.
The screen tested about 21,000 reagents; below is a random part of those that have a named target and a result. In the full data, 503 (2.4%) got an active call. 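Raw plate light values, not normalised; calls rest on replicate z-scores that were not deposited; hits include reporter decreases as well as increases.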 Reagents against one gene are numbered here. Not given: the amount of reagent, the time to read-out.

target | dsRNA no. | firefly Hh reporter signal, replicate 1 | firefly Hh reporter signal, replicate 2 | firefly Hh reporter signal, replicate 3 | Renilla reference signal, replicate 1 | Renilla reference signal, replicate 2 | Call
CG12438 | 1 | 81040 | 51984 | – | 1589 | 4677 | inactive
CG2909 | 1 | 66108 | 1.43e5 | – | 1190 | 5337 | inactive
CG11679 | 1 | 75104 | 51904 | – | 1987 | 1616 | inactive
CG12236 | 1 | 27364 | 37074 | – | 641 | 1042 | inactive
CG12236 | 2 | 70512 | 1.62e5 | – | 1749 | 6868 | inactive
MFS1 | 1 | 70317 | 42118 | – | 1260 | 3907 | inactive
CG9380 | 1 | 86248 | 69885 | – | 1892 | 6376 | inactive
ETHR | 1 | 4.40e5 | 1.78e5 | – | 21147 | 3680 | inactive
CG5359 | 1 | 67458 | 86710 | – | 2209 | 2180 | inactive
Col4a1 | 1 | 79526 | 52193 | – | 4364 | 2304 | inactive
Afti | 1 | 1.20e5 | 58102 | – | 4560 | 2360 | inactive
ssp7 | 1 | 4.32e5 | 1.66e5 | – | 22793 | 3824 | inactive
CG33998 | 1 | 1.32e5 | 1.81e5 | – | 3525 | 7485 | inactive
RpLP0-like | 1 | 51888 | 41830 | – | 3248 | 1963 | inactive
vtd | 1 | 2.92e5 | 86246 | – | 8269 | 1859 | inactive
CG9674 | 1 | 1.21e5 | 55955 | – | 4609 | 2471 | inactive
CG9674 | 2 | 1.21e5 | – | – | 2329 | 3280 | inactive
CG16820 | 1 | 1.42e5 | 87329 | – | 5977 | 3888 | inactive
Def | 1 | 1.00e5 | 68212 | – | 2668 | 5472 | inactive

Ordered by “firefly Hh reporter signal, replicate 1” (lowest first): some entries from above.
target | dsRNA no. | firefly Hh reporter signal, replicate 1 | firefly Hh reporter signal, replicate 2 | firefly Hh reporter signal, replicate 3 | Renilla reference signal, replicate 1 | Renilla reference signal, replicate 2 | Call
CG5359 | 1 | 67458 | 86710 | – | 2209 | 2180 | inactive
Col4a1 | 1 | 79526 | 52193 | – | 4364 | 2304 | inactive
Afti | 1 | 1.20e5 | 58102 | – | 4560 | 2360 | inactive
ETHR | 1 | 4.40e5 | 1.78e5 | – | 21147 | 3680 | inactive

Next records:
target | dsRNA no. | firefly Hh reporter signal, replicate 1 | firefly Hh reporter signal, replicate 2 | firefly Hh reporter signal, replicate 3 | Renilla reference signal, replicate 1 | Renilla reference signal, replicate 2 | Call
CG2111 | 1 | 46432 | 2.28e5 | – | 1538 | 8370 | inactive
CG12391 | 1 | 61408 | 66617 | – | 2800 | 2423 | inactive
bard | 1 | 4.69e5 | 63589 | – | 21233 | 1841 | inactive
CG13587 | 1 | 88689 | 95446 | – | 1943 | 7211 | inactive
CG31109 | 1 | 5.14e5 | 1.07e5 | – | 28796 | 3316 | inactive
raw | 1 | 67555 | 52179 | – | 1492 | 5184 | inactive
raw | 2 | 73106 | 47603 | – | 1904 | 3881 | inactive
CR15821 | 1 | 96202 | 58216 | – | 2529 | 4757 | inactive
CG8516 | 1 | 63016 | 1.08e5 | – | 2058 | 3254 | inactive
Prosbeta3 | 1 | 49456 | 49770 | – | 4800 | 4050 | active
CtsK1 | 1 | 1.04e5 | – | – | 3351 | 2657 | inactive
mRpS18B | 1 | 84074 | 60861 | – | 3500 | 2107 | inactive
Ccp84Aa | 1 | 1.03e5 | 1.13e5 | – | 4641 | 3712 | inactive
Tomosyn | 1 | 50896 | 50146 | – | 1965 | 1440 | inactive
Tomosyn | 2 | 1.65e5 | 7.39e5 | 3.76e5 | 6530 | 4445 | inactive
Tomosyn | 3 | 84448 | 69717 | – | 2119 | 2000 | inactive
Tomosyn | 4 | 1.47e5 | 6.33e5 | 3.82e5 | 5402 | 4717 | inactive
CG42249 | 1 | 62636 | 1.62e5 | – | 1741 | 7012 | inactive
CG42249 | 2 | 62592 | 2.24e5 | – | 1867 | 9013 | inactive
CG6153 | 1 | 88816 | 71825 | – | 4791 | 3190 | inactive
SPR | 1 | 6.08e5 | 2.56e5 | – | 26886 | 3388 | inactive
SPR | 2 | 77132 | 1.54e5 | – | 915 | 6236 | inactive
SPR | 3 | 98849 | 1.76e5 | – | 3776 | 7533 | inactive
CG31337 | 1 | 64161 | 2.41e5 | – | 12817 | 5373 | inactive
GluClalpha | 1 | 7.76e5 | 1.28e5 | – | 35318 | 3783 | inactive
bmm | 1 | 1.47e5 | 96581 | – | 5524 | 3875 | inactive
SdhB | 1 | 1.33e5 | 1.30e5 | – | 5431 | 5020 | inactive
Elo68beta | 1 | 71530 | 60432 | 58435 | 5480 | 3801 | inactive
kek6 | 1 | 85089 | 1.32e5 | – | 2964 | 5784 | inactive
CG11396 | 1 | 89101 | 98790 | – | 3538 | 3400 | inactive
CG13838 | 1 | 7.83e5 | 6.66e5 | 1.28e5 | 35952 | 3369 | inactive
CG9459 | 1 | 1.00e5 | 1.88e5 | – | 3492 | 4841 | inactive
Cyp6u1 | 1 | 99508 | 73357 | – | 3864 | 3138 | inactive
TTLL4B | 1 | 42188 | 64512 | – | 2513 | 3098 | inactive
Sdb | 1 | 1.15e5 | 51305 | – | 2710 | 2629 | inactive
Sdb | 2 | 1.55e5 | 59940 | – | 3922 | 2711 | inactive
Sdb | 3 | 1.27e5 | 66502 | – | 4829 | 2876 | inactive
RabGGTb | 1 | 69459 | 71163 | – | 3600 | 3025 | inactive
